Experimental data: US20240374655A1, “INTESTINAL MICROBIOTA AND GVHD” (Memorial Sloan-Kettering Cancer Center, priority 2014, published 2024)
Entries after “also recorded” stand apart in the source; their conditions may differ. For at least one compound, name, drawing or mass did not settle the structure.

Legend:
[1] = system: intestinal microbiota (Clostridiales, Enterococcus); test: Flora composition (16S rRNA sequencing of stool) after antibiotic treatment of healthy mice; assay type: in vivo, C57BL/6 mice; conditions: 100 mg/kg SC twice a day for two days
Description: FIGS. 16A-16J Imipenem treatment, compared to aztreonam treatment, suppresses anaerobic commensals and elevates GVHD severity in mice. (A) Flora composition analysis using 16S rRNA sequencing prior to and after treatment with the indicated antibiotics in healthy C57BL/6 mice. Mice were treated with subcutaneous (SC) injections of each antibiotic twice a day for two days (500 mg/kg for pip/tazo and 100 mg/kg for others) and stool samples were collected the following day. Values represent mean±SEM (n=3-4). *, P<0.05; **, P<0.01; ****, P<0.0001. Data are representative of two independent experiments. […] (C) Mice with GVHD treated with antibiotics were sacrificed on day 21 and GVHD histology scores in target organs were quantified by a blinded pathologist. […] (D) Stool samples obtained from mice treated with imipenem or aztreonam similarly to those in B were collected on day 21 and analyzed by 16S rRNA gene sequencing, followed by principal coordinate analysis of weighted and normalized UniFrac distances. (E and F) Differential taxonomic abundance between aztreonam treated and imipenem treated recipients was analyzed by (E) linear discriminate analysis coupled with effect size measurements (LEfSe) and (F) by LEfSe projected as a cladogram. […] (J) Principal component analysis of quantification of sequence reads from KEGG gene orthologs comparing samples from mice treated with aztreonam and imipenem. […]

[2] = Antibiotic treatment in MHC-matched minor antigen-mismatched allo-HSCT GVHD model (C57BL/6 into 129S1); assay type: in vivo
Description: FIGS. 16A-16J Imipenem treatment, compared to aztreonam treatment, suppresses anaerobic commensals and elevates GVHD severity in mice. (A) Flora composition analysis using 16S rRNA sequencing prior to and after treatment with the indicated antibiotics in healthy C57BL/6 mice. Mice were treated with subcutaneous (SC) injections of each antibiotic twice a day for two days (500 mg/kg for pip/tazo and 100 mg/kg for others) and stool samples were collected the following day. Values represent mean±SEM (n=3-4). *, P<0.05; **, P<0.01; ****, P<0.0001. Data are representative of two independent experiments. (B to J) Lethally irradiated 129S1 recipients were transplanted with MHC matched C57BL/6 T-cell depleted bone marrow (TCD-BM) cells and 1×10^6 C57BL/6 T cells. Control mice received TCD-BM only. Recipients were treated with imipenem or aztreonam (100 mg/kg, SC, 3 times a week from day 10 to day 24 following allo-HSCT). (B) Comparison of overall survival, with combined data from three independent experiments (n=15-43). ****, P<0.0001. (C) Mice with GVHD treated with antibiotics were sacrificed on day 21 and GVHD histology scores in target organs were quantified by a blinded pathologist. Data are combined from three independent experiments (n=5-20). *, P<0.05. (D) Stool samples obtained from mice treated with imipenem or aztreonam similarly to those in B were collected on day 21 and analyzed by 16S rRNA gene sequencing, followed by principal coordinate analysis of weighted and normalized UniFrac distances. (E and F) Differential taxonomic abundance between aztreonam treated and imipenem treated recipients was analyzed by (E) linear discriminate analysis coupled with effect size measurements (LEfSe) and (F) by LEfSe projected as a cladogram. Data are representative from more than five independent experiments in D to F. (G and H) Comparisons of bacterial abundance at the phylogenetic levels of (G) order, and (H) genus are shown. Data are combined from 6 independent experiments (n=32-36). ***, P<0.001. (I) Stool samples collected from mice with GVHD treated with antibiotics were collected on day 21, and evaluated by metagenomic shotgun sequence analysis, comparison of bacterial species abundance determined by taxonomy. Numbers 1 through 6 along the x-axis represent the individual subjects. (J) Principal component analysis of quantification of sequence reads from KEGG gene orthologs comparing samples from mice treated with aztreonam and imipenem.
(A to G) Lethally irradiated 129S1 recipients were transplanted with C57BL/6 TCD-BM cells with 1×10^6 C57BL/6 T cells. Recipients were treated with imipenem or aztreonam as described in FIG. 2. (A) Colonic lamina propria-infiltrating leukocytes from recipients were analyzed on day 21 by flow cytometry. Data are combined from two independent experiments. Values represent mean±SEM (n=10-14). *, P<0.05; **, P<0.01. (B) Serum, whole small intestine homogenate, and whole colon homogenate levels of IL-23 are shown. Data are combined from two independent experiments. Values represent mean±SEM (n=10-12). *, P<0.05. (C) Lamina propria-infiltrating leukocytes from the colon on day 21 were enriched for CD11b and CD11e simultaneously using a mixture of magnetic beads and IL-23 transcripts were quantified by real time PCR. Data are representative of two independent experiments. Values represent mean±SEM (n=3). *, P<0.05. (D) Immunofluorescent staining was used to quantify pSTAT3, CD3, and DAPI positive cells in colonic tissue collected on day 21. (E) RNA sequencing analysis of the distal colon on day 16 after allo-HSCT. The top 50 regulated genes are shown in the heatmap panel. (F) Immunofluorescent staining was used to quantify CD11b, B220, and DAPI-positive cells in colonic tissue collected on day Data are representative of two independent experiments. […]

Clostridiales = test: Change in Clostridiales abundance in paired stool samples of allo-HSCT patients before and after starting antibiotics; assay type: in vivo, human; conditions: before vs after starting the antibiotic; compared to aztreonam
Source text: (A) A retrospective cohort was identified of 283 adult patients who received non-T cell depleted allo-HSCT at our center from 1994 to 2013 and received antibiotics for neutropenic fever. Patients were stratified by exposure to antibiotics with significant activity against anaerobes. Outcomes indicated were depicted by Kaplan-Meier plots and curves compared by the logrank test. (B to G) Six representative clinical cases with time courses depicted of fecal microbiota composition and administration of antibiotic treatments during the course of allo-HSCT. […] (H) Change in abundance of Clostridiales in paired fecal samples from patients undergoing allo-HSCT collected prior to and following treatment with the indicated antibiotics.
For each stool specimen, DNA was purified using a phenol-chloroform extraction technique with mechanical disruption (bead-beating) based on a previously described protocol (60). Samples were analyzed using the 454 GS FLX Titanium platform to sequence the V1-V3 region of the bacterial 16S rRNA gene or were alternatively analyzed using the Illumina MiSeq platform to sequence the V4-V5 region of the 16S rRNA gene. Sequence data were compiled and processed using mothur version 1.34 (61), screened and filtered for quality (62). […] Data from this study has been stored in the NCBI Sequence Read Archive (see url: www.ncbi.nlm.nih.gov/sra). […]

Compound: C[C@@H](O)[C@H]1C(=O)N2C(C(=O)O)=C(SCCN=CN)C[C@H]12 [imipenem, imipenem-cilastatin]
- Abundance of Clostridiales in stool [1]: significantly reduced
- Abundance of Enterococcus in stool [1]: increased
- Levels of SCFA in the colon ([2]; aztreonam vs imipenem, data not shown): no significant changes
- Donor effector CD4+ T cells ([2]; colon, compared to aztreonam): increased numbers and activation
- Infiltration with granulocytes ([2]; colon, compared to aztreonam): increased infiltration with granulocytes
- Levels of IL-23 ([2]; compared to aztreonam): elevated levels of IL-23
- Numbers of colonic B cells ([2]; compared to aztreonam): reduced numbers of colonic B cells
- Abundance of Akkermansia muciniphila in stool ([2]; day 21, 16S and metagenomic shotgun sequencing): expansion of Akkermansia muciniphila; also recorded: increased abundance; also recorded: increase in Akkermansia muciniphila
- Abundance of Clostridiales in stool ([2]; day 21, 16S rRNA gene sequencing): loss of Clostridiales
- Numbers of mucus-producing goblet cells ([2]; day 21, aztreonam vs imipenem): No differences
- Sequences with homology to mucolytic genes Amuc_0953 and Amuc_2164 in stool ([2]; day 21, metagenomic shotgun sequencing): markedly enriched
- T cells infiltrating the colon ([2]; flow cytometry and histology, day 21): increased numbers of T cells infiltrating the colon
- Phosphorylated STAT3 in T cells in the colon ([2]; fluorescent microscopy, day 21): significantly higher levels
- Microbiota gene pathways (LEfSe) ([2]; metagenomic shotgun sequencing, data not shown): enriched for processes including lipopolysaccharide synthesis, and relatively depleted in several processes including D-alanine metabolism
- Change in Clostridiales abundance in stool of patients (Clostridiales): significantly lower abundances of Clostridiales; also recorded: more severe loss
